Results are given in words; binding and its absence hold for the method and conditions named. Some entries that bind do so weakly or less than the wild type.
Tests used:
[1] = target: Recombinant full-length human S100A12 (human) (UniProt P80511); test: pulsed field gradient NMR (translational diffusion); apo-, Ca2+- and Zn2+,Ca2+-S100A12, 0.3-0.5 mM, 10 mM Hepes/NaOH pH 6.5, 100 mM NaCl, 25 C; both purified
[2] = target: Recombinant full-length human S100A12 (human) (UniProt P80511); test: dynamic light scattering; data not shown; apo-, Ca2+- and Zn2+,Ca2+-S100A12; both purified
[3] = target: Recombinant full-length human S100A12 (human) (UniProt P80511); test: NMR titration; 1H{15N}-HSQC of [U-15N] Ca2+-S100A12 (0.5 mM) titrated with ZnCl2; 10 mM Hepes/NaOH pH 6.5, 100 mM NaCl, 25 C; read-out is line broadening; both purified

binding [1]: binds
binding [2]: binds
binding [3]: binds
B1: Recombinant full-length human S100A12 (natural protein, UniProt P80511 1-92, looked up)
chain: MTKLEEHLEGIVNIFHQYSVRKGHFDTLSKGELKQLLTKELANTIKNIKDKAVIDEIFQGLDANQDEQVDFQEFISLVAIALKAAHYHTHKE
notes: S100A12, human, full length; expressed from a modified pQE60 vector with a stop codon inserted so that the protein has no histidine tag; Oligomeric state (dimer, tetramer, hexamer) depends on Ca2+ and Zn2+ in the sample; [U-15N] labelled for the NMR experiments; also called apo-S100A12; Ca2+-S100A12; source: E. coli, purified (Phenyl-Sepharose, ResQ ion exchange)

— PMC2686732, “Both Ca^2+ and Zn^2+ are essential for S100A12 protein oligomerization and function” (BMC Biochemistry, 2009)
